Reference: doi:10.1101/2020.08.14.246132
Results are given in words; binding and its absence hold for the method and conditions named. In cells and extracts the contact can be indirect. Where a sequence is shown, tags or fusion partners need not be part of it.

Target: T1, FLAG-tagged full-length NLRP1 S1213A (autoproteolysis-deficient) (human), Q9C000
T1 chain: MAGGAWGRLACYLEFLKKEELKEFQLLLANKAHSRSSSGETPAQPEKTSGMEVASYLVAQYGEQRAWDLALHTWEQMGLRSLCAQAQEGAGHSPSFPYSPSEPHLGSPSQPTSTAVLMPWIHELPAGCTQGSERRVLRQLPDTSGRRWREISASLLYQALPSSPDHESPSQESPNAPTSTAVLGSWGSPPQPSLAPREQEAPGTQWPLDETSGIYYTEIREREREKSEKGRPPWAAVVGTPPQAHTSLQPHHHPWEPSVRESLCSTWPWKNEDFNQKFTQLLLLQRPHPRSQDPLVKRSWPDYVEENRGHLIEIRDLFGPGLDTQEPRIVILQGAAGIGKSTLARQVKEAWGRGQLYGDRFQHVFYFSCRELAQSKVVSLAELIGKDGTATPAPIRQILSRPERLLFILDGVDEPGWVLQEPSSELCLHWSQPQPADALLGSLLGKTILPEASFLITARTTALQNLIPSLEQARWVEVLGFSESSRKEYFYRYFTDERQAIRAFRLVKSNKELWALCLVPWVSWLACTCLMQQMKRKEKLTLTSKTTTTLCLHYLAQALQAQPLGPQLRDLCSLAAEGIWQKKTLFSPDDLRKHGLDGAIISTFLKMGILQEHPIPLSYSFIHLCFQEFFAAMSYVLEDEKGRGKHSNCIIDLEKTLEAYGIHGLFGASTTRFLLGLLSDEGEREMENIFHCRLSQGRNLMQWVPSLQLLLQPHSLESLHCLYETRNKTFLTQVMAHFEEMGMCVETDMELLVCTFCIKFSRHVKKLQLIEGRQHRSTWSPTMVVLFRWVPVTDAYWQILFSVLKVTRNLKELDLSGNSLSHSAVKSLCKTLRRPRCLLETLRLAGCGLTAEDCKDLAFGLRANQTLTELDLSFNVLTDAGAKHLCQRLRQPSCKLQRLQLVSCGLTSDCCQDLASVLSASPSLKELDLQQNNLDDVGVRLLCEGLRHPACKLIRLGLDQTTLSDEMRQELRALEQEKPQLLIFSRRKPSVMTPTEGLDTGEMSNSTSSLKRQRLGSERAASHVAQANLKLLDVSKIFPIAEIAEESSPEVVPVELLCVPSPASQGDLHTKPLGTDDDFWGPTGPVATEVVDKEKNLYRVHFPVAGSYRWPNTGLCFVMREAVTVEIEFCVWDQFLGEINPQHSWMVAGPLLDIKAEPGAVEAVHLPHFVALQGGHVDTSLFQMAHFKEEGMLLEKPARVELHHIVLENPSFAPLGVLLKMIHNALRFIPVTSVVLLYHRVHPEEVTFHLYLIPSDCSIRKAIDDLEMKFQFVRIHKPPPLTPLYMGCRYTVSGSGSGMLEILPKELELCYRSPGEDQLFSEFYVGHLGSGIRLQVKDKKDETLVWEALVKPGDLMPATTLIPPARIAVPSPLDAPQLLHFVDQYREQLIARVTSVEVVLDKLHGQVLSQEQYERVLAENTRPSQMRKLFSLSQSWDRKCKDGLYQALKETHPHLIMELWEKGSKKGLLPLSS
Test: co-IP
Conditions: remark: other sources report otherwise

B1: DPP9, short isoform, N-terminal His tag (His-TEV-DPP9), wild type, for co-immunoprecipitation, Q86TI2-1 1-863 (enzyme)
chain: MATTGTPTADRGDAAATDDPAARFQVQKHSWDGLRSIIHGSRKYSGLIVNKAPHDFQFVQKTDESGPHSHRLYYLGMPYGSRENSLLYSEIPKKVRKEALLLLSWKQMLDHFQATPHHGVYSREEELLRERKRLGVFGITSYDFHSESGLFLFQASNSLFHCRDGGKNGFMVSPMKPLEIKTQCSGPRMDPKICPADPAFFSFINNSDLWVANIETGEERRLTFCHQGLSNVLDDPKSAGVATFVIQEEFDRFTGYWWCPTASWEGSEGLKTLRILYEEVDESEVEVIHVPSPALEERKTDSYRYPRTGSKNPKIALKLAEFQTDSQGKIVSTQEKELVQPFSSLFPKVEYIARAGWTRDGKYAWAMFLDRPQQWLQLVLLPPALFIPSTENEEQRLASARAVPRNVQPYVVYEEVTNVWINVHDIFYPFPQSEGEDELCFLRANECKTGFCHLYKVTAVLKSQGYDWSEPFSPGEDEFKCPIKEEIALTSGEWEVLARHGSKIWVNEETKLVYFQGTKDTPLEHHLYVVSYEAAGEIVRLTTPGFSHSCSMSQNFDMFVSHYSSVSTPPCVHVYKLSGPDDDPLHKQPRFWASMMEAASCPPDYVPPEIFHFHTRSDVRLYGMIYKPHALQPGKKHPTVLFVYGGPQVQLVNNSFKGIKYLRLNTLASLGYAVVVIDGRGSCQRGLRFEGALKNQMGQVEIEDQVEGLQFVAEKYGFIDLSRVAIHGWSYGGFLSLMGLIHKPQVFKVAIAGAPVTVWMAYDTGYTERYMDVPENNQHGYEAGSVALHVEKLPNEPNRLLILHGFLDENVHFFHTNFLVSQLIRAGKPYQLQIYPNERHSIRCPESGEHYEVTLLHFLQEYL
binding: no binding
